The source of these data is article PMC10616111.

Chains of the proteins cited; added tags and fusions are not shown. Lines headed by an entry give the natural chain unless they say otherwise; changes in a name come on top.
UniProt P52895: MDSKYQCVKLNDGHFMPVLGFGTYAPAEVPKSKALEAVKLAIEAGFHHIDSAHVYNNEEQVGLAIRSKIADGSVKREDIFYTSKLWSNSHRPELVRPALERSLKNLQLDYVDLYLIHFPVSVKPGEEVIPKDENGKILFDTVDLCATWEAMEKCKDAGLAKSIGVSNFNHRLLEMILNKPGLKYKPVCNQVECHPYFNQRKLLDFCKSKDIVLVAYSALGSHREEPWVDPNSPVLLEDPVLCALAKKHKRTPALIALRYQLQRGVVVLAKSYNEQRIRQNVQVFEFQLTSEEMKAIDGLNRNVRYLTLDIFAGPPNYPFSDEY
UniProt P46937: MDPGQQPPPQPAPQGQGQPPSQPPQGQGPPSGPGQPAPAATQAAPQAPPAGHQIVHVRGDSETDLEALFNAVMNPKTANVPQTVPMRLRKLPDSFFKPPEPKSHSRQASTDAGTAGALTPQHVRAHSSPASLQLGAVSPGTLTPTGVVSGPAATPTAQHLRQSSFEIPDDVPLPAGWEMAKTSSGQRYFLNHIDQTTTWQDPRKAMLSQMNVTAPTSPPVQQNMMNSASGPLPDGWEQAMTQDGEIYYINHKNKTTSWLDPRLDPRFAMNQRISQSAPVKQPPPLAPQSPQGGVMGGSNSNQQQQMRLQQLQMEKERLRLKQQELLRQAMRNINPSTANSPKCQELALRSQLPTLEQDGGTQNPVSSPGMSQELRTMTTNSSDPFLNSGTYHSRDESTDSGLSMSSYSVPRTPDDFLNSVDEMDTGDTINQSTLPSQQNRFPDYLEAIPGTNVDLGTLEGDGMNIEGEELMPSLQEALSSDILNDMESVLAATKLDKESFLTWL

The target of this experiment is pep-AKR1C2 (163-aa microprotein encoded by lncAKR1C2), Flag-labelled (human) (UniProt P52895). The experiment can be described thus: affinity purification with mass spectrometry; co-IP of Flag-labelled pep-AKR1C2 combined with LC-MS/MS (Q Exactive); silver staining of the precipitate.

No constants are given. Whether binding was seen depends on the method and setting. Binding seen in cells or lysates may run through a third protein. A yes stands for co-enrichment or nearness to the bait. Other partners may have been found.

For “YAP (Yes-associated protein) (from UniProt P46937 1-504)”, the binding entry is on record as “binds”.
